Test results: paper PMC7049728, “The full-length structure of Thermus scotoductus OLD defines the ATP hydrolysis properties and catalytic mechanism of Class 1 OLD family nucleases” (Nucleic Acids Research, 2020)
These are yes or no findings as the source states them, for the method shown. Some binding calls cover weakened binding; strength is not graded here.

How the values were obtained:
[1] = target: full-length Thermus scotoductus OLD (Thermus scotoductus) (UniProt E8PLM2); test: crystal structure; native Ts^FL at 10 mg/ml, sitting drop at 20°C, 0.1 M NaOAc pH 5.8, 0.3 M AmSO4, 7% PEG MME 2000, 5 mM SmCl3 or PrCl3; platinum-soaked; nucleotide-free; monomer in the asymmetric unit, dimer by crystal symmetry; 2.20 Å; both purified
[2] = target: Thermus scotoductus OLD C-terminal region (residues 370-525) (Thermus scotoductus) (UniProt E8PLM2); test: SEC-MALS; 4 mg/ml loaded on Superdex 200 10/300 Increase; 20 mM HEPES pH 7.5, 150 mM KCl, 5 mM MgCl2, 1 mM DTT; 0.7 ml/min; Ts^FL also in different nucleotide states; both purified

binding [1]	binding [2]	Binder
binds		full-length Thermus scotoductus OLD (enzyme, UniProt E8PLM2 1-528, looked up, Thermus scotoductus OLD (Class 1 OLD family nuclease), UniProt E8PLM2, full-length, residues 1-525; codon-optimised synthetic gene in pET21b; Dimer by SEC-MALS and by crystal symmetry; The crystal model holds residues 1-142, 149-237 and 245-525; also called Ts^FL; Ts OLD; source: E. coli BL21(DE3), purified (65°C heat step, nickel column, HiTrap Q, SEC)) MLKRLQVKNFRCLEDIDLPLGPLTAIVGPNGAGKTTILRAIDLVLGDVWPSLRSFRIPQDFINFDTTRAIEITVHFDPPYTQGSFNITAFRLTCKGEDADFHVDLEPLDEGGNVPRYPSGNPLRVGTDMRNHARVLFLDHRRNLAQHLPSIRGSILGRLLQPVRREFKLQDNFKQVYEQAMDLLRTEQVKQIEKTIAETAKQMLGFLGKDAMKSMEIGFGFADPANPFNSLRLQYRESDLTLPGDELGLGIQSAIVVGIFEAFRQLGEKIGTVIIEEPEMYLHPQAQRYFYRLLCEMADKDQCQIIYSTHSPIFADVNRFEALRLVRKDRDDRVVVSYVREEDKSALDNVRNRFKLGGRFDTARNEVLFAKRALLVEGYGDRVAALQLFNQLEVDPDAECIAVVDCGGKAGIELIVGVCKALDIPFVVVHDEDVWPIDERADEETRRKQEQENKAEQEKNQRIQACAGAERVFVVQPSLEAALGIGRNASDKPYRIAEILKTVDVGQPPDALRPFVEAIRQVTRPMEE
	no binding (tested: 4 mg/ml loaded)	Thermus scotoductus OLD C-terminal region (residues 370-525) (domain or fragment, UniProt E8PLM2 370-525) AKRALLVEGYGDRVAALQLFNQLEVDPDAECIAVVDCGGKAGIELIVGVCKALDIPFVVVHDEDVWPIDERADEETRRKQEQENKAEQEKNQRIQACAGAERVFVVQPSLEAALGIGRNASDKPYRIAEILKTVDVGQPPDALRPFVEAIRQVTRP
